Results: patent publication US10398661B2, “Methods for classifying a cancer as susceptible to TMEPAI-directed therapies and treating such cancers” (THE BOARD OF REGENTS OF THE UNIVERSITY OF TEXAS SYSTEM, priority 2013, dated 2019)
Entries after “also recorded” stand apart in the source; their conditions may differ. Like-named read-outs stand apart in the source and are kept apart here. At least one compound was matched to its structure with a doubt left.

Columns and labels:
[1] = test system: MDA-MB-231 breast cancer cells; assay: Growth and death of MDA-MB-231 breast cancer cells with celastrol; type: cell-based, human; details: 1 μM
[2] = test system: normal mammary epithelial cells MCF-10A; assay: Growth of normal mammary epithelial MCF-10A cells with celastrol; type: cell-based
Excerpt: FIGS. 10A-D: Celastrol is novel inhibitor of TMEPAI expression and cancer cell growth by enhancing growth suppressive TGF-β signaling. FIG. 10A. […] FIG. 10B. Celastrol had no effect on the growth of normal mammary epithelial cells MCF-10A. FIG. 10C. Celastrol inhibited non-Smad signaling (left panel) and enhanced Smad signaling (right panel) by inhibiting TMEPAI expression. FIG. 10D. Celastrol enhanced Smad signaling as measured by 12XCAGA-Luciferase reporter assay.
Terpinoid Derivative Celastrol Blocked TMEPAI Expression and Reversed TMEPAI Mediated Effects. The inventors identified tripterine (celastrol), a triterpinoid, having the ability to block TGF-β induced TMEPAI expression after screening several terpinoid derivatives with reactive α,β-unsaturated ketones in their structure. […] Only a mild decrease in the proliferation of normal MCF-10A cells was observed even at a 10-fold higher dose of celastrol (not shown). […] Equally, celastrol inhibited non-Smad signaling (FIG. 10C, left panel). The enhancement of Smad signaling is also confirmed by increased 12XCAGA-luciferase reporter activity (FIG. 10D).

[3] = test system: TMEPAI; assay: TGF-β induced TMEPAI expression; type: cell-based
[4] = test system: Smad signaling; assay: Smad signaling (Smad2/Smad3 phosphorylation, 12XCAGA-Luciferase reporter assay); type: cell-based
[5] = test system: non-Smad signaling; assay: Non-Smad signaling; type: cell-based
[6] = test system: MDA-MB-231 tumors; assay: Subcutaneous MDA-MB-231 tumors in athymic mice treated with celastrol; type: in vivo; details: 2 mg/kg
Description: FIG. 11A. athymic mice bearing subcutaneous MDA-MB-231 tumors that were treated for 3 times a week for 4 consecutive weeks with 2 mg/kg celastrol or vehicle alone. FIG. 11B. Tumor weights following celastrol treatment, P<0.001. […] FIG. 11C. […] Toxicity of celastrol administered was monitored by measuring total body weight.
Pharmacological Inhibition of TMEPAI Expression Reduces Tumor Growth In Vivo. […] Compared to vehicle-treatment, celastrol treatment led to a ˜6-fold reduction in tumor burden (FIG. 11B). […] Thus, these preclinical studies confirm that TMEPAI expressing breast cancers thrive by suppressing tumor suppressive TGF-β signaling and are therefore susceptible to pharmacological inhibition of TMEPAI expression by celastrol.

SMILES: CC1=C(O)C(=O)C=C2C1=CC=C1[C@@]2(C)CC[C@@]2(C)[C@@H]3C[C@](C)(C(=O)O)CC[C@]3(C)CC[C@]12C [celastrol]
- MDA-MB-231 cancer cell proliferation / growth [1]: significantly decreased; also recorded: inhibited growth
- cell death of MDA-MB-231 cells [1]: increased; also recorded: induced death
- growth of normal MCF-10A cells ([2]; 1 μM): no growth suppressive effect
- proliferation of normal MCF-10A cells ([2]; 10-fold higher dose of celastrol (not shown)): mild decrease
- TGF-β induced TMEPAI expression [3]: block
- TGF-β induced TMEPAI expression ([3]; listed as Celastrol): inhibiting
- 12XCAGA-luciferase reporter activity (Smad signaling) [4]: increased
- Smad signaling as measured by Smad2 and Smad3 phosphorylation [4]: significantly increased
- 12XCAGA-luciferase reporter activity (Smad signaling) ([4]; listed as Celastrol): enhanced
- Smad signaling as measured by Smad2 and Smad3 phosphorylation ([4]; listed as Celastrol): enhanced
- non-Smad signaling [5]: inhibited
- TMEPAI expression in the tumors [6]: reduced; also recorded: decreased
- expression levels of phospho-Smad2 and 3 in the tumors [6]: increased
- tumor burden / tumor growth in vivo ([6]; 3 times a week for 4 weeks): reduced tumor burden; also recorded: inhibited the growth
